Source: the supplement of paper PMC10849652
This is one part of the list.

Amino acid sequences for entries named in this document (tags omitted). A change or cut given only in a name is not applied to a line headed by its entry.
UniProt Q96NB2: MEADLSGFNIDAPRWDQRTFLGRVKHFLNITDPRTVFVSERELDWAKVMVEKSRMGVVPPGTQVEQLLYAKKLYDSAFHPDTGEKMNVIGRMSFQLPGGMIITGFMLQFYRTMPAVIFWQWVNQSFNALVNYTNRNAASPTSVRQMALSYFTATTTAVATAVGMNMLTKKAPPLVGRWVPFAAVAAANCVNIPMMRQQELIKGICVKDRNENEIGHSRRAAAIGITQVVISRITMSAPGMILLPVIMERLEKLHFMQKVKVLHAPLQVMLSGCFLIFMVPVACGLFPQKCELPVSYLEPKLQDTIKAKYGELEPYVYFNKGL
UniProt O95470: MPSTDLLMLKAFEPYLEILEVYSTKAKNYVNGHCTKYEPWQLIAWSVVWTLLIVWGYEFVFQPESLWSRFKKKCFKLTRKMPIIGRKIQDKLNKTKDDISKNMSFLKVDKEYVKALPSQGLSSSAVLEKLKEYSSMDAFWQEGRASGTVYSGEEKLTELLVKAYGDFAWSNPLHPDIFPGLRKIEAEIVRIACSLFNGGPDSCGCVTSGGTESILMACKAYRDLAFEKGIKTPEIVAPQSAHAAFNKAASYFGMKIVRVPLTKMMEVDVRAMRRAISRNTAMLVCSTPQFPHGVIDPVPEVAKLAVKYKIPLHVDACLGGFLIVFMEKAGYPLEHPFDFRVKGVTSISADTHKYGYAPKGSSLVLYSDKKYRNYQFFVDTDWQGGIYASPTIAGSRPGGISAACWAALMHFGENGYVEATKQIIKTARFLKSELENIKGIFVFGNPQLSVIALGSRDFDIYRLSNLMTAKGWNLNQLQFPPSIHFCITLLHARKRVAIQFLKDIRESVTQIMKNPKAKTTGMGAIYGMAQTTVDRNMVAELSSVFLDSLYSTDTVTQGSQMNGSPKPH
UniProt O43765: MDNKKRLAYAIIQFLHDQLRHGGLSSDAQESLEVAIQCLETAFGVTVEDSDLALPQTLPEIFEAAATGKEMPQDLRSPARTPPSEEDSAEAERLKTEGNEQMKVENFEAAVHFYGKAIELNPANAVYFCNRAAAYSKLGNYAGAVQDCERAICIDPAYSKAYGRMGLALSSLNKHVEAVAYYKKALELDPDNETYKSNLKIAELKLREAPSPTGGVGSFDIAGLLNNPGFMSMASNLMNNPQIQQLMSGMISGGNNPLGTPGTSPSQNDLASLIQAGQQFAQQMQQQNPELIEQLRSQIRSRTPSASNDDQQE
UniProt Q8NBJ9: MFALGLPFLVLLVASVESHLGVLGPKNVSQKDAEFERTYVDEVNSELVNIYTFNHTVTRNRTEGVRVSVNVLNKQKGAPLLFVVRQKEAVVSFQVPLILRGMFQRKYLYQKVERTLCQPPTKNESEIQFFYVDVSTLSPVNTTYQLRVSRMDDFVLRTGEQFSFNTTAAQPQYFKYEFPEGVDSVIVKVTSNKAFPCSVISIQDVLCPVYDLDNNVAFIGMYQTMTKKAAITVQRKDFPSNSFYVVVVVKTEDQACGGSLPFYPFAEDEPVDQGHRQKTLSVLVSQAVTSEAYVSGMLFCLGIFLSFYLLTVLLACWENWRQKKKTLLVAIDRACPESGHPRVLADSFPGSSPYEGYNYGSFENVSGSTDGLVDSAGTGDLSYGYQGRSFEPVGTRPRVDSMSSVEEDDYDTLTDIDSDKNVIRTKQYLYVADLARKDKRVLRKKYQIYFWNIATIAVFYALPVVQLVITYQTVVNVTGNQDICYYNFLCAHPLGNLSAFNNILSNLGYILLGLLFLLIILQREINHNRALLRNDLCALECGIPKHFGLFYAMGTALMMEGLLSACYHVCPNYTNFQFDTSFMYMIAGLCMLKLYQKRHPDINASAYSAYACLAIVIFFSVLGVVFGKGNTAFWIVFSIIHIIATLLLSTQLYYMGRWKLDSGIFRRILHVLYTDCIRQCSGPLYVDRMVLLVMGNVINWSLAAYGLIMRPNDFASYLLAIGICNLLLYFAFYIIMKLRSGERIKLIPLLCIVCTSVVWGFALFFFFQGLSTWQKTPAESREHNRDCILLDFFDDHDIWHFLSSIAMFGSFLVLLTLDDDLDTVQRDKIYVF
UniProt Q9UQ13: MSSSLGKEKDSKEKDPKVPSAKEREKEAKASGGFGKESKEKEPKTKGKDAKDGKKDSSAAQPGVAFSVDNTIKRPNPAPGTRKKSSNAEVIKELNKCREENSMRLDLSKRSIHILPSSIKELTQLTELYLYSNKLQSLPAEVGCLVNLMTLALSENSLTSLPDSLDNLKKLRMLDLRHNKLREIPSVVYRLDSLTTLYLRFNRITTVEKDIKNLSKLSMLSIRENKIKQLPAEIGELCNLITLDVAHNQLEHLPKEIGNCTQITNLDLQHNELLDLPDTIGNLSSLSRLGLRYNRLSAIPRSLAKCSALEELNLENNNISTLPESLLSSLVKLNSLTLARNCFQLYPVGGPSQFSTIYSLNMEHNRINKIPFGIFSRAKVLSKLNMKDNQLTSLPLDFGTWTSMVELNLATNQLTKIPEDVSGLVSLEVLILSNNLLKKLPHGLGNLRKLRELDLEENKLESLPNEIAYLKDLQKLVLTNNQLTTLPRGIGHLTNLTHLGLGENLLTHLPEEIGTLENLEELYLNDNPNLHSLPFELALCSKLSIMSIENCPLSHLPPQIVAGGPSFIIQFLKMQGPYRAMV
UniProt Q9NRX5: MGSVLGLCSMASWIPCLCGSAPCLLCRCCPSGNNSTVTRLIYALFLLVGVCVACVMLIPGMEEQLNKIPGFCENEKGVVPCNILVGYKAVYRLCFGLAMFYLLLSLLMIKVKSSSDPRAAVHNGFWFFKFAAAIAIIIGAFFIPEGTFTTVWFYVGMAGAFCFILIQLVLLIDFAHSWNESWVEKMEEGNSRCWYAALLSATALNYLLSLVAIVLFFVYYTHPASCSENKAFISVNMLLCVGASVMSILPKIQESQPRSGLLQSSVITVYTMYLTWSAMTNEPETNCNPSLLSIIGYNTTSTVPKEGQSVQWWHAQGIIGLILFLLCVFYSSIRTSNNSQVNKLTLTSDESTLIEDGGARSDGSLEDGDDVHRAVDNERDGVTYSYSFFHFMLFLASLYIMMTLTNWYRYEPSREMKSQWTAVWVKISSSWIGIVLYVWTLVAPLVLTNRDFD
UniProt P36955: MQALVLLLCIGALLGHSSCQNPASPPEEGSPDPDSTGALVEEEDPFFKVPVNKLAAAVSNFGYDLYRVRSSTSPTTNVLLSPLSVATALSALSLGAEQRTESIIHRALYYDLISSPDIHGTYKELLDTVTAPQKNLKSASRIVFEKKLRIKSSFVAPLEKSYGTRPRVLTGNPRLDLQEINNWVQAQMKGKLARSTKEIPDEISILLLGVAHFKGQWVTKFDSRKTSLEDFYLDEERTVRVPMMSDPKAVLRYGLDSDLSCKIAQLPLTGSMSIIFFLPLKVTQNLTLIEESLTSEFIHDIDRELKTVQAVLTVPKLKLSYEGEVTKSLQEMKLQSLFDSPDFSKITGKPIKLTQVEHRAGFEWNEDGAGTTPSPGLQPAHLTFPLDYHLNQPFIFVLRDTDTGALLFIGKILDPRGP
UniProt Q96ST3: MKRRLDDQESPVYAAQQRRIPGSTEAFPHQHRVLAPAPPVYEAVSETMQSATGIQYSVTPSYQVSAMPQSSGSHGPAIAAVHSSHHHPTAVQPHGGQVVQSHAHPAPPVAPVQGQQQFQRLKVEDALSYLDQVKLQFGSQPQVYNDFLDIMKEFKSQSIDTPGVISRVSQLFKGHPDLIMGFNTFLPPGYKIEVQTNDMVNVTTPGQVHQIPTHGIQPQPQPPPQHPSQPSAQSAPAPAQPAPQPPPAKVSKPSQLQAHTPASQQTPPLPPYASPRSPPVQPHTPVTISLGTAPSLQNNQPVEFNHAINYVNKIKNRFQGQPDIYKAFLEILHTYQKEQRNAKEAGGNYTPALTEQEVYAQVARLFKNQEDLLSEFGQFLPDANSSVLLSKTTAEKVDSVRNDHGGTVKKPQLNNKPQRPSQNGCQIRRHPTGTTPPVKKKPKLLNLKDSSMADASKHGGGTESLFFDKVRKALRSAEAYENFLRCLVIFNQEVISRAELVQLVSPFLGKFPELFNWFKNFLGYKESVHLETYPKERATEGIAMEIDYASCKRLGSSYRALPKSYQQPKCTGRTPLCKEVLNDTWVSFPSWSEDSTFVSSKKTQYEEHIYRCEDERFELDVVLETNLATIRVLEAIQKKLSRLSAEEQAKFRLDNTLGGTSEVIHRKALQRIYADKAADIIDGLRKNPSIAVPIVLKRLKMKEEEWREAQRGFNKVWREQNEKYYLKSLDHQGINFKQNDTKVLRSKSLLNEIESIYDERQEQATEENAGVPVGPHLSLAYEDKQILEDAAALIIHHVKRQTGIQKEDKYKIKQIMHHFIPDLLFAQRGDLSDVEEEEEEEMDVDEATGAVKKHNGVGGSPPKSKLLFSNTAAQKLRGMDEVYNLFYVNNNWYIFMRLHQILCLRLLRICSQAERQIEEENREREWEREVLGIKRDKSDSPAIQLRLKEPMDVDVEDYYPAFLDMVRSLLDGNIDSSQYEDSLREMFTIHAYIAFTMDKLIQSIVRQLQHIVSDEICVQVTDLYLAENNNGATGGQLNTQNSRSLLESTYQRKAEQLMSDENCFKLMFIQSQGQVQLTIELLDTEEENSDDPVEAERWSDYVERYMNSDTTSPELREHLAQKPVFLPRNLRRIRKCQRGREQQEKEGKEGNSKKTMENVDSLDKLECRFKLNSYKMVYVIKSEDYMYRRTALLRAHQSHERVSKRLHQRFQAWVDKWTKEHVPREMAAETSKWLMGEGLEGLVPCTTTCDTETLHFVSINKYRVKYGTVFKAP
UniProt Q8IZQ5, whole entry, looked up: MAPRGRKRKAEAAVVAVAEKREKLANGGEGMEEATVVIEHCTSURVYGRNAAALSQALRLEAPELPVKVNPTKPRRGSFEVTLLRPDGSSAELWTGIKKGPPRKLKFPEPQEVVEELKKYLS
UniProt P63208, whole entry, looked up: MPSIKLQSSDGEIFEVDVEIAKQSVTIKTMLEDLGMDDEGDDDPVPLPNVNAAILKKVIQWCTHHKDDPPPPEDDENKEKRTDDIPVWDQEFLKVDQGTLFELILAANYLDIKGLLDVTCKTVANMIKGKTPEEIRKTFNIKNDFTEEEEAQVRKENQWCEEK
UniProt Q9NR46: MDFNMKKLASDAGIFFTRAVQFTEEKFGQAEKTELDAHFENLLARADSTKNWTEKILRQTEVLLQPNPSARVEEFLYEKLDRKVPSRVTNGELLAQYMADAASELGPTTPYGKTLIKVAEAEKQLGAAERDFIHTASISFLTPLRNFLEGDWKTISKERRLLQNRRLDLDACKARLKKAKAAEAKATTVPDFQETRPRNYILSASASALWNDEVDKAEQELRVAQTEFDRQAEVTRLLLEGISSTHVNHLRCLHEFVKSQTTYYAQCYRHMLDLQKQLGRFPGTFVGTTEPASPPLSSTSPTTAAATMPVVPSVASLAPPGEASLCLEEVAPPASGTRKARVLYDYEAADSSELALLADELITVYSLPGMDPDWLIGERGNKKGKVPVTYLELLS
UniProt Q99611, whole entry, looked up: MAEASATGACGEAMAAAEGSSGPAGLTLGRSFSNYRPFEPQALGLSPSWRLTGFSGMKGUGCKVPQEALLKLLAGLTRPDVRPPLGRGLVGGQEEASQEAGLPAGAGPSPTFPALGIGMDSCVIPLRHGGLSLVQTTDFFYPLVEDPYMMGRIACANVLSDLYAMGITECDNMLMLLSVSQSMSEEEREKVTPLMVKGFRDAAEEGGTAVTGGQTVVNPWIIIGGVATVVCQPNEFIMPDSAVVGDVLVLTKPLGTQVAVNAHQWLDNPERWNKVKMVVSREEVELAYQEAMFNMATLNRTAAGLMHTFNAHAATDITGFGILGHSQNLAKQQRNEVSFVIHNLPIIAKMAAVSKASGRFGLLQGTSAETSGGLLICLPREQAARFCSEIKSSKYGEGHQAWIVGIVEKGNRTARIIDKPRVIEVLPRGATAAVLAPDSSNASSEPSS
UniProt P05543: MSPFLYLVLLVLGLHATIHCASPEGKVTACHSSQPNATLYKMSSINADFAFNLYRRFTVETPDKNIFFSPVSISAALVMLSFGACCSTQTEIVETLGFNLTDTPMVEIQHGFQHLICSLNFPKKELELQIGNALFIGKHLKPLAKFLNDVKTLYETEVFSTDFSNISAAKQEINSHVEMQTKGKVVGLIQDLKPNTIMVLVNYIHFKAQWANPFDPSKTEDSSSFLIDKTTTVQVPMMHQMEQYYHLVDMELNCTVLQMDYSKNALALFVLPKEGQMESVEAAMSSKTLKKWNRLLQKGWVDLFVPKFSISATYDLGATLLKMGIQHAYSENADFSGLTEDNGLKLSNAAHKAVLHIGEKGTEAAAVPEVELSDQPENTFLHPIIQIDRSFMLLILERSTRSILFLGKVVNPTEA

Each target was assayed with C1CCN(C1)C(=O)NC2=CC=CC(=C2)NC3=NC=C(C(=N3)NCCC4=CN=CN4)Br (assay: log2 fold change, soluble protein after heating vs DMSO (PISA); higher = thermal stabilisation; K562 cells, 10 uM, 30 min; active = over 0.2 and 3.5 SD of the protein, either way, in both replicates (recomputed)).
Procedure, shortened: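 Thermal stability values are relative to control samples and come from duplicates. They are expressed as log2 fold changes. For measurement, K562 cells (2×10^6 cells/mL) received 10 μM compound for 30 min, and aliquots were heated for 3 min over 48°C-58°C, pooled, and extracted at 4°C in PBS with 0.5% NP-40. Soluble protein, the supernatant after 21,000xg for 90 min, was quantified by TMTpro 16plex LC-MS/MS with equalised channel sums.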

log2 fold change, inactive:
SFXN2 (UniProt Q96NB2) -0.03
SESN2 (UniProt P58004) -0.041
SGPL1 (UniProt O95470) -0.035
SGTA (UniProt O43765) -0.008
SIDT2 isoform 2 (UniProt Q8NBJ9) 0.002
SHOC2 (UniProt Q9UQ13) -0.076
SEPSECS (UniProt Q9HD40) -0.022
SERINC1 (UniProt Q9NRX5) 0.115
SERPINF1 (UniProt P36955) -0.113
SIN3A (UniProt Q96ST3) 0.095
SEH1L isoform 1 (UniProt Q96EE3) -0.02
SETD3 (UniProt Q86TU7) -0.015
SEPTIN9 (UniProt Q9UHD8) 0.003
SEPTIN4 isoform 4 (UniProt O43236) -0.129
SHCBP1 (UniProt Q8NEM2) 0.127
SENP6 (UniProt Q9GZR1) -0.061
SELENOH (UniProt Q8IZQ5) -0.052
SETMAR (UniProt Q53H47) -0.031
SKP1 (UniProt P63208) -0.006
SH3GLB2 (UniProt Q9NR46) -0.022
SEPHS2 (UniProt Q99611) -0.003
SERPINA7 (UniProt P05543) 0.164
SERPINB6, A0A087X1N8 0.035

As a short view, some entries already given.
log2 fold change, inactive:
SIDT2 isoform 2 (UniProt Q8NBJ9) 0.002
SHOC2 (UniProt Q9UQ13) -0.076
